This note sets out measurements from publication doi:10.1101/2021.09.06.459192.

Amino acid sequences for entries named in this document (tags omitted). A change or cut given only in a name is not applied to a line headed by its entry.
UniProt P42945: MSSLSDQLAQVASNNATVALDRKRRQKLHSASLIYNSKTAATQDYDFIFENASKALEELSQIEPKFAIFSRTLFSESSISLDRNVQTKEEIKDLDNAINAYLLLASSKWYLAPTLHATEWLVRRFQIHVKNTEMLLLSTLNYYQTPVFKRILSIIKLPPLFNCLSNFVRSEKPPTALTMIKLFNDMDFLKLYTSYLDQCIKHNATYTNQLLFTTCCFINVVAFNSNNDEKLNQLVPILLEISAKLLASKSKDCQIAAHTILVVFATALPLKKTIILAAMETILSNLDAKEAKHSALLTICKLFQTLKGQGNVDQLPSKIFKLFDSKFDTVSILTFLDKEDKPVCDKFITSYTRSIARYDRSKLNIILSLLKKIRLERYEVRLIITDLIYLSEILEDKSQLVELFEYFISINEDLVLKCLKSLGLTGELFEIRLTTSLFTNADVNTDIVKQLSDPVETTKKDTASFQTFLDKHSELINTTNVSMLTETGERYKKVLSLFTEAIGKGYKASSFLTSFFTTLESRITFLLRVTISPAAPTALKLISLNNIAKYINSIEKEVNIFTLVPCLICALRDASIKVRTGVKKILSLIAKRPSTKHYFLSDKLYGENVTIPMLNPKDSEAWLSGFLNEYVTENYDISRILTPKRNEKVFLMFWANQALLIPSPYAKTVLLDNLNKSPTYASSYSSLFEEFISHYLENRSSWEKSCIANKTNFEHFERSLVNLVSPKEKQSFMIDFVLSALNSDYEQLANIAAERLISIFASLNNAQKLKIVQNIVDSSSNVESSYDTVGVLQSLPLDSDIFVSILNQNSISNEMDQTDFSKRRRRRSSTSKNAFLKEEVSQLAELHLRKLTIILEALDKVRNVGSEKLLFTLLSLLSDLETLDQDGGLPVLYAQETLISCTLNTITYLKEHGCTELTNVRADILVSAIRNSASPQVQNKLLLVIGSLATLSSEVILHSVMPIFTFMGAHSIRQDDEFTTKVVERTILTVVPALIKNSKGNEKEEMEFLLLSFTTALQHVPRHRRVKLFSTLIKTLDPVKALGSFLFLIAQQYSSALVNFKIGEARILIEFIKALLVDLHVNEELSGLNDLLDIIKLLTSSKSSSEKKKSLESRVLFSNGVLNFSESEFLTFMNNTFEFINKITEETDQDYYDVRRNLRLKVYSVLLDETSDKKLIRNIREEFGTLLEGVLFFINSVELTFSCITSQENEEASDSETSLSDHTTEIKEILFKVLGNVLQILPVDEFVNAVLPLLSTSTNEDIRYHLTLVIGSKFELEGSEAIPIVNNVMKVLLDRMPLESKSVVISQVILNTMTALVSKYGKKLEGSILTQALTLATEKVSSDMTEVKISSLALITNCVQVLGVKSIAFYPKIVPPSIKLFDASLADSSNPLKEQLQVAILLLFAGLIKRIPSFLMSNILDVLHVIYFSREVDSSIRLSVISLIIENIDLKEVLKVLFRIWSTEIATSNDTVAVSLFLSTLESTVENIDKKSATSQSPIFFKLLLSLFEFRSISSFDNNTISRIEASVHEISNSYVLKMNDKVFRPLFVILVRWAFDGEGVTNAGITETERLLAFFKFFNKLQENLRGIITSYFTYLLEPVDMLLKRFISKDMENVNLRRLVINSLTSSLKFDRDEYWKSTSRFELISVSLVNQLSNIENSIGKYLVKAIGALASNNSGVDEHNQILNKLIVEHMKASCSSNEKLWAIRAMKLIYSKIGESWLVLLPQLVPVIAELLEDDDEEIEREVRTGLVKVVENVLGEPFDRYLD
UniProt P20448: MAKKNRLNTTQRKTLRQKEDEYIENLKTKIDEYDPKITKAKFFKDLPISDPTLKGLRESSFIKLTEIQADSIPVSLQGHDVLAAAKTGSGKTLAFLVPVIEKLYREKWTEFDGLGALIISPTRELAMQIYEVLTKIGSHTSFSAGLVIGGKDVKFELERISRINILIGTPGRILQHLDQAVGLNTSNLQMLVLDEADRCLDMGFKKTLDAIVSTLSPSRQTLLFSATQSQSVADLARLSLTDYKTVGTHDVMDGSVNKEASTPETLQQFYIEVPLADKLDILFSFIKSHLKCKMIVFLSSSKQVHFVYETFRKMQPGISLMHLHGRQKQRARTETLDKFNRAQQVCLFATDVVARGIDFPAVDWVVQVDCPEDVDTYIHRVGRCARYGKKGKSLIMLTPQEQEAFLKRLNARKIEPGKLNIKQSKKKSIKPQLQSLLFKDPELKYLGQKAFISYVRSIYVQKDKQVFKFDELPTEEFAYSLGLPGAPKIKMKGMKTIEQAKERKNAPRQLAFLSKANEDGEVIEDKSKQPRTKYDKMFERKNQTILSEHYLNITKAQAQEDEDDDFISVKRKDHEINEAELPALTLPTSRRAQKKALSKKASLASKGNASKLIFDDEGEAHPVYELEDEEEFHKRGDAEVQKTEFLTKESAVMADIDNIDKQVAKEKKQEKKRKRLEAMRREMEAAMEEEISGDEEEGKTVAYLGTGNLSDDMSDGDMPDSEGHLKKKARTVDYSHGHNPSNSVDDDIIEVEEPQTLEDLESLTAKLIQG
UniProt P33442: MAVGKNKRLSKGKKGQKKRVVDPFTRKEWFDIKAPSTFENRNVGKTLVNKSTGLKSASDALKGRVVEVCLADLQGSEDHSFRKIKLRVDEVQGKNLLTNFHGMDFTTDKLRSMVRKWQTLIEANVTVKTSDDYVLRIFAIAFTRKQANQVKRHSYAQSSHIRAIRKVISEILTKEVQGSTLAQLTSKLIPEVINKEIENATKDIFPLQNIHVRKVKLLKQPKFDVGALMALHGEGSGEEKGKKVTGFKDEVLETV

The experiment has as its target Utp10-TAP (S. cerevisiae) (UniProt P42945). The experiment in a line: affinity purification with mass spectrometry.

These are yes or no findings as the source states them, for the method shown. Binding seen in cells or lysates may run through a third protein. Here binding means that the protein was enriched with, or labelled near, the bait; the list need not be complete.

Dbp4 (from UniProt P20448 1-770): the binding result was “binds”.
Then Rps1 (from UniProt P33442), with “binds”.
